Experimental data from PMC9249222.
These are yes or no findings as the source states them, for the method shown. A result given as binding can be weak or reduced; the word gives no strength.

Assays:
[1] = target: Upa1-Gfp with block mutation in PAM2L2 (Gal4 DNA-binding domain fusion) (Ustilago maydis); assay: two-hybrid; Matchmaker 3, S. cerevisiae AH109; Upa1 versions fused to the Gal4p DNA-binding domain, Rrm4 versions to the activation domain; growth on SD without leucine, tryptophan, histidine and adenine, 28°C, 2 days
[2] = target: Upa1-Gfp with block mutation in PAM2L1 (Gal4 DNA-binding domain fusion) (Ustilago maydis); assay: as above

Substance | binding [1] | binding [2]
Rrm4-Kat (Gal4 activation domain fusion) (from UniProt A0A0D1DWZ5 1-792) | binds | binds
Rrm4-Kat with deletion of MLLE3^Rrm4 (Gal4 activation domain fusion) (from UniProt A0A0D1DWZ5) | no binding | no binding
Rrm4-M1,2Δ-Kat (Gal4 activation domain fusion) (from UniProt A0A0D1DWZ5) | binds | binds
Rrm4-M1Δ-Kat (Gal4 activation domain fusion) (from UniProt A0A0D1DWZ5) | binds | binds
Rrm4-M2Δ-Kat (Gal4 activation domain fusion) (from UniProt A0A0D1DWZ5) | binds | binds
